Results reported in US7411039B2 (Novo Nordisk A/S, priority 2002, dated 2008).

Assay: general procedure: Fmoc solid-phase peptide synthesis; Wang resin; HBTU
Details: whole synthesis, scale 0.25 mmol

D3E/L17K((S)-4-carboxy-4-(hexadecanoylamino)butanoyl)/K30R/D33E-GLP-2(1-33)
isolated mass: 29.3 mg
